Three molecules from article doi:10.1101/2021.03.08.433705 can be followed below.

By UniProt entry, the sequences of proteins in these tests, tags left out.
UniProt Q6W2J9: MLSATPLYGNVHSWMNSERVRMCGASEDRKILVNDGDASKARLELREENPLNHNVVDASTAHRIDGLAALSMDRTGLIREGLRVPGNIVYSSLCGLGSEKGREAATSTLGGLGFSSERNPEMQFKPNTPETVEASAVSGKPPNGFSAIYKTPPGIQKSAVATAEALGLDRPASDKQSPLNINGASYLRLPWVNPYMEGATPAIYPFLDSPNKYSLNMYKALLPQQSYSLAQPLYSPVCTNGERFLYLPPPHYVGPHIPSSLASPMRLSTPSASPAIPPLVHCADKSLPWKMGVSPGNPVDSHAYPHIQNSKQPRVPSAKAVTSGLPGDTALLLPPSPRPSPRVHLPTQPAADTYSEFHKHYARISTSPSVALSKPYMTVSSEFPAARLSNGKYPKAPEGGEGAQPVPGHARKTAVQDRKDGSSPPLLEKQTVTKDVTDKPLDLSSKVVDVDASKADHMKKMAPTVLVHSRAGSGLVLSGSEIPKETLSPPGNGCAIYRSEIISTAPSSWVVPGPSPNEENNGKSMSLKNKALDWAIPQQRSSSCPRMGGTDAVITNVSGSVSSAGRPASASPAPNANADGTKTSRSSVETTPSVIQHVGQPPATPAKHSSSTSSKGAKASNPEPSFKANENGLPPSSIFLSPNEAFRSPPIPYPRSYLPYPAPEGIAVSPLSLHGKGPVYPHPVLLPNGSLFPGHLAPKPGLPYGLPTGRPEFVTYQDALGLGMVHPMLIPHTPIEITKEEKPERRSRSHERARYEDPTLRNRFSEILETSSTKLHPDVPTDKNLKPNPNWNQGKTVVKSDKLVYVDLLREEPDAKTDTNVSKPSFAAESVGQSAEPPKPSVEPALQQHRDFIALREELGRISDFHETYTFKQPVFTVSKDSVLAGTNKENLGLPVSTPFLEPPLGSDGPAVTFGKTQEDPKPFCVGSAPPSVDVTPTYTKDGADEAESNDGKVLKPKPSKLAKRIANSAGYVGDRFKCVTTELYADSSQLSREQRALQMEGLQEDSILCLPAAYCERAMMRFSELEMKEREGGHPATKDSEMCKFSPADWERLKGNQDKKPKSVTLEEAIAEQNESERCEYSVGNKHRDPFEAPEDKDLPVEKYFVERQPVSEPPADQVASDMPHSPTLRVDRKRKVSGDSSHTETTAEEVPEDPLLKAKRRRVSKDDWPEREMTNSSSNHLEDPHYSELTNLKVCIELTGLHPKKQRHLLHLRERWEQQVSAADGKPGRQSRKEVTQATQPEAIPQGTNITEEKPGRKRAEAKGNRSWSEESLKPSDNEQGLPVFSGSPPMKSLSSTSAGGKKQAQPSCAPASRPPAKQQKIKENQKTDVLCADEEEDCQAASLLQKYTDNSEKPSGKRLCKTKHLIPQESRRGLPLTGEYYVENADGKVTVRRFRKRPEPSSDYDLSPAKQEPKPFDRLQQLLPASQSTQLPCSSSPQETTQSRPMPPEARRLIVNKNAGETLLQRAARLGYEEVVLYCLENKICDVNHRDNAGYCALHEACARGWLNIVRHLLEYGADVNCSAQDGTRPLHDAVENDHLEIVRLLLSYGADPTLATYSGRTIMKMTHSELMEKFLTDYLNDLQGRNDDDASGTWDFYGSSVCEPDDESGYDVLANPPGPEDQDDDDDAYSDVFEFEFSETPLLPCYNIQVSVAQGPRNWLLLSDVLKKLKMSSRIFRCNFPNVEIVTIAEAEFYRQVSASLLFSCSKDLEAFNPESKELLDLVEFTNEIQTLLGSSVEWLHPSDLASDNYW
UniProt Q9BSM1: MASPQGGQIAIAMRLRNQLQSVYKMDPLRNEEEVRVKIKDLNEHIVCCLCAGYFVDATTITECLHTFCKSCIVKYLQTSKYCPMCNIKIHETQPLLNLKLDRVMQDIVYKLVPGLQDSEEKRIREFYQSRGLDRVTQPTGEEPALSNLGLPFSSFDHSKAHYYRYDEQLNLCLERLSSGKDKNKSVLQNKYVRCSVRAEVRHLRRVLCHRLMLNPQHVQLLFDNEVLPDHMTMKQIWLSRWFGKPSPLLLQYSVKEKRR
UniProt Q93009: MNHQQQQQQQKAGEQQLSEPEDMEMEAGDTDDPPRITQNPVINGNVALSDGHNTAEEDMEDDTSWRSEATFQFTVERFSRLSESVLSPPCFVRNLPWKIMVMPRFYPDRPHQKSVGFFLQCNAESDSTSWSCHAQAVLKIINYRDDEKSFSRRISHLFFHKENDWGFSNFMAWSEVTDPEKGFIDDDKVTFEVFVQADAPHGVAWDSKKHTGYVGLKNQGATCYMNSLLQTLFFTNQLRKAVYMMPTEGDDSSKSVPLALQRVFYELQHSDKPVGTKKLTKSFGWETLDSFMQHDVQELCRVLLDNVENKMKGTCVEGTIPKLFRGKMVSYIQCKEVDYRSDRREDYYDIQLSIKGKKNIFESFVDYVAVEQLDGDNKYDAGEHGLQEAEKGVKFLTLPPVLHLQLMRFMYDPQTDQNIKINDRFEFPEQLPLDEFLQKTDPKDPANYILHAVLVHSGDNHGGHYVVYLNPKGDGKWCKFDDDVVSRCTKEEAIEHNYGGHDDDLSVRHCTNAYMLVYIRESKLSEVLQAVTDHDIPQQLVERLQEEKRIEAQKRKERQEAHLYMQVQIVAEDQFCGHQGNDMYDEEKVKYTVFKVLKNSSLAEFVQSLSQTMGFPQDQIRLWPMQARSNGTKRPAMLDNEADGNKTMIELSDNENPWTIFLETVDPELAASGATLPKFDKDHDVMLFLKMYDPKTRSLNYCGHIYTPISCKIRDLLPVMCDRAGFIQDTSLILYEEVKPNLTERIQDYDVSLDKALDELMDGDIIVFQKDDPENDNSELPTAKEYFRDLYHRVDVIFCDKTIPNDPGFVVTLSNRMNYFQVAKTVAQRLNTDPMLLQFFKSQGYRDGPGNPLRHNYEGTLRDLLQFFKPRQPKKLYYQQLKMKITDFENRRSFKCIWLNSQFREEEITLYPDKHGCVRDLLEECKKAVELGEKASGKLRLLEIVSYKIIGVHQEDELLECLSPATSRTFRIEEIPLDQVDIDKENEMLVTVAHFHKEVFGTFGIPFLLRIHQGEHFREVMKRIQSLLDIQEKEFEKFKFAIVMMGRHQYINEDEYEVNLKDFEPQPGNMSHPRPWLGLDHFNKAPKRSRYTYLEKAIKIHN

This assay concerns the target BCOR (endogenous wild type, K562) (human (endogenous in K562)) (UniProt Q6W2J9). Kind of assay: affinity purification with mass spectrometry.

Results are given in words; binding and its absence hold for the method and conditions named. In cells and extracts the contact can be indirect. Here binding means that the protein was enriched with, or labelled near, the bait; the list need not be complete.

Regarding “PCGF1 (endogenous) (from UniProt Q9BSM1 1-259)”, the binding result is reported as “binds”.
In the case of “USP7 (endogenous) (from UniProt Q93009 1-1102)”, the binding result was “binds”.

B1: KDM2B (endogenous) (protein, UniProt Q8NHM5 1-1336)
chain: MAGPQMGGSAEDHPPRKRHAAEKQKKKTVIYTKCFEFESATQRPIDRQRYDENEDLSDVEEIVSVRGFSLEEKLRSQLYQGDFVHAMEGKDFNYEYVQREALRVPLIFREKDGLGIKMPDPDFTVRDVKLLVGSRRLVDVMDVNTQKGTEMSMSQFVRYYETPEAQRDKLYNVISLEFSHTKLEHLVKRPTVVDLVDWVDNMWPQHLKEKQTEATNAIAEMKYPKVKKYCLMSVKGCFTDFHIDFGGTSVWYHVFRGGKIFWLIPPTLHNLALYEEWVLSGKQSDIFLGDRVERCQRIELKQGYTFFIPSGWIHAVYTPVDSLVFGGNILHSFNVPMQLRIYEIEDRTRVQPKFRYPFYYEMCWYVLERYVYCVTQRSHLTQEYQRESMLIDAPRKPSIDGFSSDSWLEMEEEACDQQPQEEEEKDEEGEGRDRAPKPPTDGSTSPTSTPSEDQEALGKKPKAPALRFLKRTLSNESEESVKSTTLAVDYPKTPTGSPATEVSAKWTHLTEFELKGLKALVEKLESLPENKKCVPEGIEDPQALLEGVKNVLKEHADDDPSLAITGVPVVTWPKKTPKNRAVGRPKGKLGPASAVKLAANRTTAGARRRRTRCRKCEACLRTECGECHFCKDMKKFGGPGRMKQSCIMRQCIAPVLPHTAVCLVCGEAGKEDTVEEEEGKFNLMLMECSICNEIIHPGCLKIKESEGVVNDELPNCWECPKCNHAGKTGKQKRGPGFKYASNLPGSLLKEQKMNRDNKEGQEPAKRRSECEEAPRRRSDEHSKKVPPDGLLRRKSDDVHLRKKRKYEKPQELSGRKRASSLQTSPGSSSHLSPRPPLGSSLSPWWRSSLTYFQQQLKPGKEDKLFRKKRRSWKNAEDRMALANKPLRRFKQEPEDELPEAPPKTRESDHSRSSSPTAGPSTEGAEGPEEKKKVKMRRKRRLPNKELSRELSKELNHEIQRTENSLANENQQPIKSEPESEGEEPKRPPGICERPHRFSKGLNGTPRELRHQLGPSLRSPPRVISRPPPSVSPPKCIQMERHVIRPPPISPPPDSLPLDDGAAHVMHREVWMAVFSYLSHQDLCVCMRVCRTWNRWCCDKRLWTRIDLNHCKSITPLMLSGIIRRQPVSLDLSWTNISKKQLSWLINRLPGLRDLVLSGCSWIAVSALCSSSCPLLRTLDVQWVEGLKDAQMRDLLSPPTDNRPGQMDNRSKLRNIVELRLAGLDITDASLRLIIRHMPLLSKLHLSYCNHVTDQSINLLTAVGTTTRDSLTEINLSDCNKVTDQCLSFFKRCGNICHIDLRYCKQVTKEGCEQFIAEMSVSVQFGQVEEKLLQKLS
Regarding B1, the binding entry is on record as “binds”.
